Laboratory results: PubChem BioAssay AID652054 (National Center for Advancing Translational Sciences (NCATS), 2013)
Out of some 360,000 compounds screened, about 9,100 (2.5%) were called active. Inconclusive results, whose numbers are uncertain, are shown with a selection of clear calls. Rule as the data show it: active = max response below about -50%; inconclusive = no clear call, values can overlap the other calls; inactive = above that.

Sequences of proteins named here, by UniProt entry; tags and fusion partners are left off.
UniProt P35462, whole entry, looked up: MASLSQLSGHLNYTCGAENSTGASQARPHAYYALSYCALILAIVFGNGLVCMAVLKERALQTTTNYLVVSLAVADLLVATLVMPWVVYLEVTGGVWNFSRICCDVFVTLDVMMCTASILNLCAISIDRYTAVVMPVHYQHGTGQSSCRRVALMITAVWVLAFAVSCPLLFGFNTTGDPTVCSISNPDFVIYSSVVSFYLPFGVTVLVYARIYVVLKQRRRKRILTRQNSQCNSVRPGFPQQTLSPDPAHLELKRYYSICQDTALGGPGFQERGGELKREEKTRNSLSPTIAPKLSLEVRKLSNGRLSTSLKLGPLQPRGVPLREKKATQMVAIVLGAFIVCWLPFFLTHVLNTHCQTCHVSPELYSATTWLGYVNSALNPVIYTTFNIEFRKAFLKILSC

target: D(3) dopamine receptor (Homo sapiens) (UniProt P35462); assay: qHTS of D3 Dopamine Receptor Antagonist: qHTS; conditions: D3R cells, DiscoveRx beta-arrestin luminescence, antagonist mode; hits give low values
How it was run: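 Cells plated overnight at 1500 cells/well, then exposed to library compounds with dopamine controls for 90 minutes at 37 degrees C. DiscoveRx reagent added for 30–60 minutes at room temperature; luminescence read, quantitative HTS format.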
% is scaled to controls: 0 for no effect and ±100 for the full control effect.

Question: How did the max response, negative = inhibition turn out when Cc1cccc(NC(=O)c2nc[nH]c2C(=O)Nc2cc(Br)ccc2F)c1 was run?
Answer: The max response, negative = inhibition was inactive: 5.21%.

Question: For Cc1[nH]n(-c2ccccc2)c(=O)c1-c1ccccc1, which max response, negative = inhibition is on record?
Answer: The max response, negative = inhibition was inconclusive: -32.9%.

Question: With Cc1cc(C(F)(F)F)n2[nH]c(=O)c(N=Nc3ccccc3)c2n1 as the molecule, how does the max response, negative = inhibition read?
Answer: The max response, negative = inhibition was inactive: -14.7%.

Question: For CCOc1ccccc1CNC(=O)C1CCN(c2nc3ccccc3o2)CC1, which max response, negative = inhibition is on record?
Answer: The max response, negative = inhibition was inconclusive: -37.8%.

Question: Cc1nnc2ccc(N3CCN(c4ccccn4)CC3)nn12 was tested. Which max response, negative = inhibition did it give?
Answer: The max response, negative = inhibition was inconclusive: -41.4%.

Question: Which max response, negative = inhibition does the source give for COc1ccc(CNCc2ccc(C(F)(F)F)cc2)cc1OC here?
Answer: The max response, negative = inhibition was inconclusive: -30.6%.

Question: COc1cc([N+](=O)[O-])cc(/C=N/NC(=O)c2cncc(Br)c2)c1O was tested. Which max response, negative = inhibition did it give?
Answer: Its max response, negative = inhibition is inconclusive: -36.8%.

Question: With COc1cc2[nH]c(=O)n(Cc3ccc(C(=O)N4CCC(N5CCCCC5)CC4)cc3)c(=O)c2cc1OC as the molecule, how does the max response, negative = inhibition read?
Answer: The max response, negative = inhibition was inconclusive: -35.9%.

Question: With CC(=O)Nc1cc(-c2ccc(F)cc2)cn2c(-c3ccc(S(C)(=O)=O)cc3)cnc12 as the molecule, how does the max response, negative = inhibition read?
Answer: The max response, negative = inhibition was inactive: 12.9%.

Question: For Cc1cccc(N2CCN(C(C(=O)NCc3ccccc3)c3ccc(F)cc3)CC2)c1C (stereo not drawn), which max response, negative = inhibition is on record?
Answer: Its max response, negative = inhibition is inconclusive: -42.8%.

Question: With O=C(O)C1CCCCC1C(=O)Nc1cccc(Br)c1 (stereo not drawn) as the molecule, how does the max response, negative = inhibition read?
Answer: The max response, negative = inhibition was inconclusive: -33.7%.

Question: How did the max response, negative = inhibition turn out when O=C(N=Nc1c(O)[nH]c2ccc(Br)cc12)c1cc(-c2cccs2)nc2ccccc12 was run?
Answer: The max response, negative = inhibition was inactive: 13.2%.

Question: Which max response, negative = inhibition does the source give for COc1ccc(-c2ccc(C(=O)Nc3ccccc3)c3occc23)c(C)c1 here?
Answer: The max response, negative = inhibition was inactive: 12.6%.

Question: COc1ccc(NC(=O)c2ccc(COc3ccccc3Br)o2)cc1OC was tested. Which max response, negative = inhibition did it give?
Answer: The max response, negative = inhibition was inactive: 37.5%.

Question: How did the max response, negative = inhibition turn out when COc1ccc(C(C(=O)NC2CCCCC2)N(C(=O)c2cccs2)c2ccc3c(c2)OCO3)cc1 (stereo not drawn) was run?
Answer: Its max response, negative = inhibition is inconclusive: -41.5%.

Question: Cc1ccccc1C(=O)NCc1nnc(SCC(=O)N2c3ccccc3Sc3ccccc32)n1C was tested. Which max response, negative = inhibition did it give?
Answer: Its max response, negative = inhibition is active: -63.8%.

Question: For NS(=O)(=O)c1ccc(Nc2ccc([N+](=O)[O-])c3nonc23)cc1, which max response, negative = inhibition is on record?
Answer: The max response, negative = inhibition was inconclusive: -40.1%.

Question: Which max response, negative = inhibition does the source give for COc1ccc(CNC(=O)C2(CC3CC(c4ccccc4)=NO3)CCN(C(=O)CCCCCBr)CC2)cc1 (stereo not drawn) here?
Answer: The max response, negative = inhibition was inconclusive: -43%.

Question: For Cc1ccccc1N(C)S(=O)(=O)c1nnc(NC(=O)c2ccccc2F)s1, which max response, negative = inhibition is on record?
Answer: Its max response, negative = inhibition is inconclusive: -48.7%.

Question: With COc1ccc(CC2(CO)CCN(Cc3ccc4nsnc4c3)CC2)cc1 as the molecule, how does the max response, negative = inhibition read?
Answer: Its max response, negative = inhibition is active: -73%.

Question: CC(=O)Nc1ccc(S(=O)(=O)N2CCSC2c2ccccc2)cc1 (stereo not drawn) was tested. Which max response, negative = inhibition did it give?
Answer: Its max response, negative = inhibition is inconclusive: -41.7%.

Question: O=C(CN1C(=O)/C(=C/c2cccc(Br)c2)SC1=S)NCCCN1CCOCC1 was tested. Which max response, negative = inhibition did it give?
Answer: Its max response, negative = inhibition is inconclusive: -48.4%.

Question: With N#Cc1c(NC(=O)c2ccccc2Cl)n(Cc2ccccc2)c2nc3ccccc3nc12 as the molecule, how does the max response, negative = inhibition read?
Answer: The max response, negative = inhibition was inconclusive: -37.3%.

Question: How did the max response, negative = inhibition turn out when CC(C)(C)OC(=O)N1CCN(c2ccc(NC(=O)Cn3nnc(-c4ccccc4)n3)cc2)CC1 was run?
Answer: Its max response, negative = inhibition is inconclusive: -49.7%.

Question: Which max response, negative = inhibition does the source give for COc1cccc(C2NC(CCSC)(C(=O)O)C3C(=O)N(C(C)C)C(=O)C23)c1O (stereo not drawn) here?
Answer: The max response, negative = inhibition was inconclusive: -32.2%.

Question: With CCOC1=C2[C@@H](CN(S(=O)(=O)c3ccccc3C)[C@H]2c2ccc(Cl)cc2)[C@H]2C(=O)NC(=O)[C@H]2C1 as the molecule, how does the max response, negative = inhibition read?
Answer: Its max response, negative = inhibition is active: -71.9%.

Question: For COc1ccc2nc(N3CCC(O)CC3)c(C#N)cc2c1, which max response, negative = inhibition is on record?
Answer: The max response, negative = inhibition was inactive: 9.63%.

Question: O=C(CN1CCN(Cc2ccccc2)C1=O)NCCCN1CCOCC1 was tested. Which max response, negative = inhibition did it give?
Answer: Its max response, negative = inhibition is inconclusive: -30.2%.

Question: With CCO[C@H]1OC(C(=O)N2CCOCC2)=C[C@@H](C2CC2)[C@@H]1CCCO as the molecule, how does the max response, negative = inhibition read?
Answer: Its max response, negative = inhibition is active: -55.1%.

Question: O=C(Nc1c(Cl)cccc1Cl)Oc1cccc2cccnc12 was tested. Which max response, negative = inhibition did it give?
Answer: Its max response, negative = inhibition is active: -51.5%.

Question: Which max response, negative = inhibition does the source give for CC1CCCN(CCCNC(=O)C2CC(=O)N(c3ccc(F)c(Cl)c3)C2)C1 (stereo not drawn) here?
Answer: The max response, negative = inhibition was inconclusive: -31.5%.

Question: For CCOC(=O)C1CCN(C(=O)CN(Cc2ccc(Cl)cc2)S(C)(=O)=O)CC1, which max response, negative = inhibition is on record?
Answer: Its max response, negative = inhibition is active: -55.9%.

Question: For O=C(N/N=C/c1cccc([N+](=O)[O-])c1)c1ccc(COc2ccccc2-c2ccccc2)cc1, which max response, negative = inhibition is on record?
Answer: Its max response, negative = inhibition is inconclusive: -35.5%.

Question: How did the max response, negative = inhibition turn out when Cc1sc2nc(C3CC3)nc(N3CCN(C(=O)c4ccc(Cl)cc4)CC3)c2c1C was run?
Answer: The max response, negative = inhibition was inactive: -4.14%.

Question: For Cc1ccc(C(C)C)c(OCCCCN2CCNCC2)c1, which max response, negative = inhibition is on record?
Answer: Its max response, negative = inhibition is inconclusive: -30.1%.

Question: With C(=NNc1ccc2ccccc2n1)c1ccccn1 as the molecule, how does the max response, negative = inhibition read?
Answer: Its max response, negative = inhibition is inconclusive: -41.3%.

Question: With Cc1cc(C)cc(OCC(=O)NNC(=O)c2cc(C)[nH]n2)c1 as the molecule, how does the max response, negative = inhibition read?
Answer: The max response, negative = inhibition was inconclusive: -43.8%.

Question: Which max response, negative = inhibition does the source give for CCOC(=O)C1CCCN(CC(O)COc2ccccc2C(C)=O)C1 (stereo not drawn) here?
Answer: Its max response, negative = inhibition is inconclusive: -43%.

Question: CN(C)c1ccc(/C=N\NC(=O)c2cccc3cc[nH]c23)cc1 was tested. Which max response, negative = inhibition did it give?
Answer: Its max response, negative = inhibition is inconclusive: -30.2%.

Question: With Cc1ccc([N+](=O)[O-])cc1NC(=S)NCCc1ccccc1 as the molecule, how does the max response, negative = inhibition read?
Answer: Its max response, negative = inhibition is inconclusive: -35.8%.

Question: With Oc1ccc2ccccc2c1C=Nc1ccc(N2CCOCC2)cc1 as the molecule, how does the max response, negative = inhibition read?
Answer: The max response, negative = inhibition was inactive: 5.42%.

Question: How did the max response, negative = inhibition turn out when Cc1ccc(C(=O)NCCN2C3=NC[C@H](C)N3C[C@H]2Cc2ccc(O)cc2)cc1Br was run?
Answer: The max response, negative = inhibition was active: -58.3%.

Question: For COc1ccc(C)cc1NC(=O)CN(Cc1nnc(-c2ccc(Cl)cc2)o1)C1CCCC1, which max response, negative = inhibition is on record?
Answer: The max response, negative = inhibition was inconclusive: -33.6%.
